Measurements reported in PubChem BioAssay AID1259308 (NCATS, 2017).

Screen: 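Knock-downs that increase output of a recombinant reporter protein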 (primary screen)
Cell system: human HEK293 embryonic kidney cells stably expressing firefly luciferase (HEK-CMV-Luc2-Hygro)
Reagent: single siRNA against human genes, 0.8 pmol siRNA per well
Timing: 72 h
Read-out: 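Reporter luminescence and viable-cell signal on separate replicate plates, given as percent of non-targeting control and median/MAD z-scores, plus per-cell luciferase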
Scale: total luciferase, z-score and total luciferase, % of control: higher = more reporter protein produced
Active means: 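Active when the median/MAD z-score for overall luciferase is greater than 3; a gene was taken forward for validation with new siRNAs if at least two of its three siRNAs passed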
Meaning of the calls: active = raised luciferase; inactive = no rise
The deposit covers about 59,000 reagents; shown is a random part of them. In the full data, about 1,510 (2.6%) got an active call. 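Calls use total luciferase alone and ignore viability, so some active siRNAs may act by altering cell number.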 Entries without a mark were called inactive. The numbers tell different reagents against one gene apart. Not all columns of the deposit are shown.

gene symbol | reagent no. | total luciferase, z-score | total luciferase, % of control
BST1 | 1 | 1.84 | 119
BST1 | 2 | 0.548 | 92.8
BST1 | 3 | 0.427 | 90.4
SLFN12 | 1 | 2.05 | 123
SLFN12 | 2 | -1.92 | 43.6
SLFN12 | 3 | -2.08 | 40.5
PARP4 | 1 | 0.193 | 85.7
PARP4 | 2 | 0.436 | 90.6
PARP4 | 3 | -0.576 | 70.4
CPSF2 | 1 | -0.0615 | 80.7
CPSF2 | 2 | -2.32 | 35.7
CPSF2 | 3 | -2.37 | 34.8
LRRC73 | 1 | 1.72 | 116
LRRC73 | 2 | 0.88 | 99.4
LRRC73 | 3 | -2.14 | 39.3
NOSIP | 1 | -0.011 | 81.7
NOSIP | 2 | 1.46 | 111
NOSIP | 3 | -0.914 | 63.7
CPEB2-DT | 1 | 1.08 | 103
CPEB2-DT | 2 | 1.55 | 113
CPEB2-DT | 3 | -0.317 | 75.6
FOXD2 | 1 | 0.603 | 93.9
FOXD2 | 2 | 0.817 | 98.1
FOXD2 | 3 | -1.25 | 57.1
TEKT4P2 | 1 | 1.52 | 112
TEKT4P2 | 2 | 0.731 | 96.4
TEKT4P2 | 3 | -0.226 | 77.4
PITPNA | 1 | 0.838 | 98.5
PITPNA | 2 | -0.533 | 71.3
PITPNA | 3 | -1.31 | 55.8
LOC440742 | 1 | 1.16 | 105
LOC440742 | 2 | 0.109 | 84
LOC440742 | 3 | 1.72 | 116
NEU4 | 1 | 1.05 | 103
NEU4 | 2 | 0.89 | 99.6
NEU4 | 3 | 0.733 | 96.5
CATIP | 1 | -0.231 | 77.3
CATIP | 2 | -0.569 | 70.6
CATIP | 3 | 0.31 | 88.1
NAGPA | 1 | -0.015 | 81.6
NAGPA | 2 | 2.63 | 134
NAGPA | 3 | -0.69 | 68.2
SND1-IT1 | 1 | -0.0134 | 81.6
SND1-IT1 | 2 | -1.52 | 51.6
SND1-IT1 | 3 | 1.37 | 109
MYG1 | 1 | -0.171 | 78.5
MYG1 | 2 | 0.604 | 93.9
MYG1 | 3 | -2.26 | 36.8
FAM53C | 1 | -0.931 | 63.4
FAM53C | 2 | 1.87 | 119
FAM53C | 3 | 2.31 | 128
FKBP2 | 1 | -0.0354 | 81.2
FKBP2 | 2 | -0.325 | 75.4
FKBP2 | 3 | 0.566 | 93.1
CCDC25 | 1 | 1.31 | 108
CCDC25 | 2 | -0.871 | 64.6
CCDC25 | 3 | -0.712 | 67.7

8 successive entries already listed, quoted:
gene symbol | reagent no. | total luciferase, z-score | total luciferase, % of control
TEKT4P2 | 3 | -0.226 | 77.4
PITPNA | 1 | 0.838 | 98.5
PITPNA | 2 | -0.533 | 71.3
PITPNA | 3 | -1.31 | 55.8
LOC440742 | 1 | 1.16 | 105
LOC440742 | 2 | 0.109 | 84
LOC440742 | 3 | 1.72 | 116
NEU4 | 1 | 1.05 | 103
